PubChem BioAssay AID504791, Drosophila RNAi Screening Center – 2011

Test: 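Genes whose knock-down strengthens or weakens small-RNA reporter silencing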 (primary screen)
Cells: Drosophila S2-derived reporter cells
Reagent: long dsRNA against Drosophila genes, about 150-250 ng dsRNA per well (siRNA assay); about 80-120 ng (miRNA assay)
Timing: about 5 days (siRNA assay); about 4 days (miRNA assay)
Conditions: copper sulfate induction of reporters: 25 µM (siRNA assay); 200 mM stated (miRNA assay), 1-2 days before reading
Measurement: 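Dual luciferase assay: Renilla to firefly signal ratio in each well, scaled to the mean ratio of its plate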
Reading the numbers: siRNA reporter hit score: higher = 3 marks a strong hit with raised ratio; -3 a strong hit with lowered ratio
Active means: 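First-pass picks had plate-scaled ratios over 1.5 for the siRNA assay, over 1.6 for the miRNA assay, or under 0.6; two distinct dsRNAs had to score alike on retest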
The screen tested about 23,000 reagents; this is an unselected part of those that have a named target and a result. Over the whole deposit, 199 (0.86%) were called active. 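Plate-scaled ratios behind the calls are not deposited; printed light signals are raw; many rows marked increased or decreased are still called inactive.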 Names joined by + are all predicted targets of the reagent.

gene,DRSC id,siRNA reporter hit score,stable siRNA reporter change,miRNA reporter change,"stable assay Renilla, run 1 (luminescence)","stable assay firefly, run 1 (luminescence)",call
CG15118,DRSC06540,,,,11965,4.26e5,inactive
CG2116,DRSC18206,,,,7999,5.53e5,inactive
Jhedup (Juvenile hormone esterase duplication),DRSC07173,,,,7102,3.82e5,inactive
CG8708,DRSC07240,,,,9287,5.72e5,inactive
CG13065,DRSC09948,,,,7688,3.46e5,inactive
CG31091,DRSC15933,,,,6542,3.62e5,inactive
flfl (falafel),DRSC16474,,reporter ratio lowered past the hit cutoff,reporter ratio lowered past the hit cutoff,5639,5.28e5,active
Tfb5 + CG31917,DRSC28677,,,reporter ratio lowered past the hit cutoff,,,active
sip1 (septin interacting protein 1),DRSC03609,,,,8098,3.69e5,inactive
sip1 (septin interacting protein 1),DRSC22648,,,,4151,3.86e5,inactive
Frq1 (Frequenin 1),DRSC19961,,,,4703,3.48e5,inactive
CG6184,DRSC15986,,,,6442,3.11e5,inactive
RIOK2 (RIO kinase 2),DRSC14413,,,,7487,3.50e5,inactive
TMEM216 + CG11760,DRSC14375,,,,8858,6.44e5,inactive
CG31055,DRSC13832,,,,7554,4.84e5,inactive
CG13332,DRSC06367,,,,6395,3.83e5,inactive
Act42A (Actin 42A),DRSC04835,,,,5415,4.21e5,inactive
CG10912,DRSC06009,,,,9270,3.90e5,inactive
Ku80,DRSC02699,,,,8152,4.20e5,inactive
CG6937,DRSC16140,,,,6304,3.57e5,inactive
RpS24 (Ribosomal protein S24),DRSC04414,,,,3740,3.53e5,inactive

No new results follow: entries from further up.
gene,DRSC id,siRNA reporter hit score,stable siRNA reporter change,miRNA reporter change,"stable assay Renilla, run 1 (luminescence)","stable assay firefly, run 1 (luminescence)",call
CG13065,DRSC09948,,,,7688,3.46e5,inactive
CG31091,DRSC15933,,,,6542,3.62e5,inactive
flfl (falafel),DRSC16474,,reporter ratio lowered past the hit cutoff,reporter ratio lowered past the hit cutoff,5639,5.28e5,active
Tfb5 + CG31917,DRSC28677,,,reporter ratio lowered past the hit cutoff,,,active
sip1 (septin interacting protein 1),DRSC03609,,,,8098,3.69e5,inactive

The results go on.
gene,DRSC id,siRNA reporter hit score,stable siRNA reporter change,miRNA reporter change,"stable assay Renilla, run 1 (luminescence)","stable assay firefly, run 1 (luminescence)",call
CG33773,DRSC14032,,,,6704,3.35e5,inactive
uif (uninflatable),DRSC00963,,,,5859,4.84e5,inactive
uif (uninflatable),DRSC03427,,,,6655,3.73e5,inactive
GluRIIB (Glutamate receptor IIB),DRSC03335,,,,6735,3.38e5,inactive
eIF4B (eukaryotic translation initiation factor 4B),DRSC20983,,,,4828,4.10e5,inactive
Nthl1 (Nth-like DNA glycosylase 1),DRSC03183,,,,6598,4.73e5,inactive
Cpr64Ad (Cuticular protein 64Ad),DRSC08284,,,,7728,4.49e5,inactive
PDZ-GEF (PDZ domain-containing guanine nucleotide exchange factor),DRSC03231,,,,6654,4.77e5,inactive
CG17648,DRSC00508,,,,8043,4.38e5,inactive
alien,DRSC03482,,,reporter ratio lowered past the hit cutoff,4792,6.10e5,inactive
Gmppb (GDP-mannose pyrophosphorylase B),DRSC12169,,,,7268,4.40e5,inactive
Gpat4 (Glycerol-3-phosphate acyltransferase 4),DRSC04345,,,,30338,1.21e6,inactive
CG10494,DRSC04072,3,,,13201,7.85e5,inactive
